Measured values as given in paper PMC5320473.
No constants are given. Whether binding was seen depends on the method and setting. Binding seen in cells or lysates may run through a third protein. Some entries that bind do so weakly or less than the wild type.

By UniProt entry, the sequences of proteins in these tests, tags left out.
UniProt Q61221: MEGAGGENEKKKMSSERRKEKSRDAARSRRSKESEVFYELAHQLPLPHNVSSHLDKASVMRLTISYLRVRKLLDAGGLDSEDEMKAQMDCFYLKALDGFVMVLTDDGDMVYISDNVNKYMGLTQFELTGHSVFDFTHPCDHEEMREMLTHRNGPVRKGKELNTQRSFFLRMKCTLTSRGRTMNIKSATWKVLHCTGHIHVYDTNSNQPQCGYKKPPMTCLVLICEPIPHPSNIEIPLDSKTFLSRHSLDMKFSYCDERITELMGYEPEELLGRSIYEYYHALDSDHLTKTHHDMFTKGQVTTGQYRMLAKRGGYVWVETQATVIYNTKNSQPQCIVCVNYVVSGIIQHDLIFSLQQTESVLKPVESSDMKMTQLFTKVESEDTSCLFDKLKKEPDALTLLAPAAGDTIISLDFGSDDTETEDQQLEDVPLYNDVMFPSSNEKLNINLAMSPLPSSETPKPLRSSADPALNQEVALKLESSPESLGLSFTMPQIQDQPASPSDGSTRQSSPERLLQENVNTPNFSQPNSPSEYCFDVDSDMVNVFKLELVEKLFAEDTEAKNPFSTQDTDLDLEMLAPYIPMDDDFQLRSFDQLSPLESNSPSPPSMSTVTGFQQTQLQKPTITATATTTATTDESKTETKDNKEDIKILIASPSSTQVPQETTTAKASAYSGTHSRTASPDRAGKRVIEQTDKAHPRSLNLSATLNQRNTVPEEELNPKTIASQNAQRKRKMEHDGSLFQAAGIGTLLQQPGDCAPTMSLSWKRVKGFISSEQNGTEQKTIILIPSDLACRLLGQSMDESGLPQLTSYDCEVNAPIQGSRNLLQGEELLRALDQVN
UniProt P53762: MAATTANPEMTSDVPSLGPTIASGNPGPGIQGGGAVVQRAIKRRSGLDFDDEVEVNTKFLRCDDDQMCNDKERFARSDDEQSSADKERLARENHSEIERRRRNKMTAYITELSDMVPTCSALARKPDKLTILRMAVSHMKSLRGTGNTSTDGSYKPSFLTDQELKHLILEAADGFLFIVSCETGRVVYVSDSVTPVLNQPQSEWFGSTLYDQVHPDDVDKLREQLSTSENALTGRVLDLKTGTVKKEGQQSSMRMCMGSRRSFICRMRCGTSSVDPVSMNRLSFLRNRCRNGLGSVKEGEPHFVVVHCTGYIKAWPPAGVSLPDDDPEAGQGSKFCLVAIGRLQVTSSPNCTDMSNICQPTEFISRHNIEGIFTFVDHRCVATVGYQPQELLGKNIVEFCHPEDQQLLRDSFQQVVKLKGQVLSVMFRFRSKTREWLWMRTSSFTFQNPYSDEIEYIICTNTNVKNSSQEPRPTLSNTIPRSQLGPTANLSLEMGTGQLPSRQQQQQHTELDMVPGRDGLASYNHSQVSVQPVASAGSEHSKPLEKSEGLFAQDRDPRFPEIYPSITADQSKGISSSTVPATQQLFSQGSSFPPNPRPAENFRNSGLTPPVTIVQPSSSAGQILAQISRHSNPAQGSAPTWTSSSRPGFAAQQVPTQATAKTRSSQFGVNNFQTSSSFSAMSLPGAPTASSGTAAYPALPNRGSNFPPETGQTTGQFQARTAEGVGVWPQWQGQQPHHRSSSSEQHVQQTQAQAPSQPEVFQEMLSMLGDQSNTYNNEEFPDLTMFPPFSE

Target: hypoxia inducible factor 1α (HIF-1α) (mouse (endogenous in MC3T3-E1)) (UniProt Q61221)
Assay: co-IP; hypoxic (1% O2) MC3T3-E1 cells treated 16 h with indicated concentrations of osmium complex 1 or chetomin; 30 μg lysate protein incubated 12 h with anti-HIF-1α magnetic beads; Western blot with anti-p300, anti-HIF-1α, anti-HIF-1β

HIF-1β (from UniProt P53762 1-791) was tested, and the binding was “binds”.
